Values joined by “and” are separate entries in the source; they are usually repeats but may differ in a detail not shown here. Equal values may be shown once. The campaign covered roughly 310,000 compounds. About 17,000 (5.5%) were called active. The inconclusive results got no clear call from the source; some entries with a clear call stand among them for comparison. The call rests on the fitted dose curve; in most records, active means well fitted inhibition curve with a large enough effect; inconclusive means small, poorly fitted or top-dose-only effect, or effect the other way; inactive means no such curve, though single readings can be large or run the other way. Potencies beside an inconclusive call are fits to weak or partial responses and may not hold up.
The compounds below were run against Nuclear receptor ROR-gamma (Mus musculus) (UniProt P51450) (assay: qHTS for inhibitors of ROR gamma transcriptional activity). Details: Drosophila S2 Gal4-RORgamma UAS-luciferase reporter, 20 h; series mostly up to 53.6 µM.
Summary of the method: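 In this cell-based reporter format, copper sulfate (700 uM final) drives Gal4–ROR gamma fusion expression from a metallothionein promoter in Drosophila Schneider cells; compounds preincubated 1 hr, reporter read after 20 hr at ambient temperature.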
Further: nearly all actives have a fitted effect of over 60% in size.
Potency means the concentration at half of the fitted maximal effect.

By UniProt entry, the sequences of proteins in these tests, tags left out. Where a name states a change or a piece, a line headed by the entry shows the natural chain unless it says otherwise.
UniProt P51450: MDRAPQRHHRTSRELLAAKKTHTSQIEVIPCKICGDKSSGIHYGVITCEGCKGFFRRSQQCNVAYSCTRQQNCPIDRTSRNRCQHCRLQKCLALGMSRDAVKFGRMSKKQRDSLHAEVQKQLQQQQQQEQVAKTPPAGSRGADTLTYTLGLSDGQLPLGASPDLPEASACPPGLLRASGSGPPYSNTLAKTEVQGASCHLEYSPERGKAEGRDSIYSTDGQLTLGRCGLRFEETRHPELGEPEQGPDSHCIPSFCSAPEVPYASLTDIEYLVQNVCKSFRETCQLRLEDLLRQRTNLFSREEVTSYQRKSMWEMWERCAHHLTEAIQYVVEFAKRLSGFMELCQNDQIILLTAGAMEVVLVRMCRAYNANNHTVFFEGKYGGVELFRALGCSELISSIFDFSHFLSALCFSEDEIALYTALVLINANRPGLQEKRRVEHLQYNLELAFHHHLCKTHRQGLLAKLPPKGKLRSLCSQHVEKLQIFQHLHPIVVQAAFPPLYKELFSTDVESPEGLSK

Row | SMILES | Potency
1 | O=C(/C=C/C=C/c1ccccc1)CC1(O)C(=O)N(CCc2ccccc2)c2ccccc21 (configuration not stated) | inconclusive: 11.2 µM [activator, single point]
2 | COc1ccc(OCc2cc(C(=O)NCCN3CCCc4ccccc43)no2)c(Cl)c1 | inconclusive: 12.6 µM [activator, single point]
3 | O=C1CC(c2ccc(F)cc2)Sc2ccccc2N1 (configuration not stated) | inactive
4 | C/C(=N\Nc1nc(N2CCCCC2)nc(N2CCOCC2)n1)c1cccs1 | inactive
5 | Cc1nc2ccccc2n1C1CCN(C(=O)Nc2ccccc2)CC1 | inactive
6 | O=S(=O)(Nc1ccccc1O)c1ccc(-c2ccccc2)cc1 | inconclusive: 35.5 µM [inhibitor, single point]
7 | CC(=O)c1ccc(N2CCN(C(=O)Cn3c(=S)[nH]c4ncccc4c3=O)CC2)cc1 | inactive
8 | CC(=O)c1ccc(NC(=O)CN2CCN(c3ncccn3)CC2)cc1 | inactive
9 | O=C(COc1cccc2c1CCN(Cc1ccc(Br)cc1)C2=O)NCc1ccco1 | inconclusive: 3.55 µM [activator, full curve, poor fit]
10 | O=S(=O)(Cc1c(F)cccc1Cl)c1ncn[nH]1 | inactive
11 | COc1ccc(C)cc1NC(=O)C1CCCCC1C(=O)O (configuration not stated) | inconclusive: 6.31 µM [inhibitor, single point]
12 | CCOC(=O)C1CCN(c2ncnc3c2cnn3-c2ccc(Cl)cc2)CC1 | active: 1.41 µM
13 | CCc1cccc2c(C#N)cn(CCOc3ccccc3OC)c12 | inconclusive: 20 µM [activator, single point]
14 | CCCCC(CC)c1nnc(NC(=O)c2cccs2)s1 (configuration not stated) | inconclusive: 8.91 µM [inhibitor, partial curve, poor fit]
15 | CCOc1ccc(-n2c(CCc3ccccc3)n[nH]c2=S)cc1 | inconclusive: 3.55 µM [inhibitor, full curve, poor fit]
16 | COc1ccc(CC(=O)NCc2nnc(SCC(=O)Nc3ccccc3)n2C)cc1 | inactive
17 | COc1ccc(CN(C)C2CCCCC2)c(C)c1C | inconclusive: 31.6 µM [inhibitor, single point]
18 | CCOc1ccccc1NC(=O)c1cc(Cl)ccc1NC(=O)c1ccco1 | inactive
19 | Cc1cc(C)cc(C(=O)Nc2nc3ccccc3[nH]2)c1 | active: 6.31 µM
20 | CC(=O)Nc1ccc(C(=O)NCC(=O)OCc2c(F)cccc2Cl)cc1 | inconclusive: 25.1 µM [inhibitor, single point]
21 | CN1\C(=C/C=C/C=C/C=[N+](C)C)C(C)(C)c2ccccc21 | inconclusive: 35.5 µM [inhibitor, single point]
22 | Cc1ccc(-c2nc(CS(=O)CC(=O)NCc3ccc4c(c3)OCO4)c(C)o2)cc1 (configuration not stated) | inconclusive: 11.2 µM [inhibitor, single point]
23 | Cc1ccc(C2=NC3(CCCCCC3)NC2=S)cc1 | active: 1.41 µM
24 | Cc1nc2ccc(NS(=O)(=O)c3ccc(C)c(C)c3)cc2s1 | inconclusive: 31.6 µM [activator, single point]

Row | SMILES | Potency
25 | CCOc1ccccc1C1C(C#N)=C(N)N(N(C)C)C2=C1C(=O)CCC2 (configuration not stated) | inactive
26 | CCOc1cc(/C=C\[N+](=O)[O-])ccc1OCC(=O)Nc1ccccc1C | active: 1.12 µM
27 | Cc1cc(S(=O)(=O)Nc2cccc(C(=O)O)c2)c(C)c(S(=O)(=O)c2ccc(Cl)cc2)c1 | inconclusive: 14.1 µM [activator, single point]
28 | S=C(Nc1ccccc1Cl)N1CCN(Cc2ccccc2)CC1 | inconclusive: 14.1 µM [inhibitor, single point]
29 | Cc1ccsc1/C=N/NC(=O)c1nnn(-c2nonc2N)c1-c1ccccc1 | active: 7.08 µM
30 | O=C(Nc1ncc([N+](=O)[O-])s1)c1cccs1 | inconclusive: 6.31 µM [inhibitor, single point] and inconclusive: 17.8 µM [inhibitor, single point]
31 | COc1cc(C(=O)O[C@H]2CC(C)=CC[C@@]3(C)CC[C@@](O)(C(C)C)[C@H]23)ccc1O | inactive
32 | CC(=O)Nc1cccc(N2C(=O)CC(N3CCC(C(=O)N4CCCCC4)CC3)C2=O)c1 (configuration not stated) | inconclusive: 22.4 µM [inhibitor, single point]
33 | CNc1nc2c(N)ncnc2n1[C@@H]1O[C@@H]2COP(=O)(O)O[C@H]2[C@H]1O | inactive
34 | COc1ccc(NC(=O)/C(C#N)=C/c2ccc(OCCN3CCOCC3)c(OC)c2)c(OC)c1 | inconclusive: 5.01 µM [inhibitor, partial curve]
35 | Cc1cc(C)cc(NC(=O)C(OC(=O)c2ccc([N+](=O)[O-])o2)c2ccccc2)c1 (configuration not stated) | inconclusive: 25.1 µM [inhibitor, single point]
36 | COc1ccc(OCc2nnc(SCc3ccc(C(=O)O)cc3)o2)cc1 | inconclusive: 11.2 µM [activator, partial curve]
37 | CCn1c2ccccc2c2nnc(SCCCn3c(=O)[nH]c4ccccc43)nc21 | inactive
38 | COc1ccc(C2=Nn3c(nnc3-c3cccc(OC)c3OC)SC2)c(OC)c1 | inconclusive: 14.1 µM [inhibitor, single point]
39 | Cc1ccc(C(=O)/C=C/NNC(=O)c2ccccc2O)cc1 | inconclusive: 35.5 µM [inhibitor, single point]
40 | Cc1ccc(C(=O)c2oc3ccccc3c2NC(=O)c2cc(-c3ccccc3O)n[nH]2)cc1 | inactive
41 | COCCn1c(C)cc(O)c(C(=O)Nc2cccc(Cl)c2)c1=O | inconclusive: 14.1 µM [inhibitor, single point]
42 | COC(=O)CSc1nnc(NC(=O)C2CC(=O)N(c3ccc(F)cc3)C2)s1 (configuration not stated) | inactive
43 | Cc1ccc(-c2cc(C(=O)N/N=C/C=C/c3ccco3)c3ccccc3n2)cc1C | inconclusive: 2 µM [inhibitor, full curve, poor fit]
44 | CN(C)c1cccc(C(=O)NCc2ccccc2)c1 | inconclusive: 11.2 µM [activator, partial curve]
45 | Cc1ccc(C(=O)C2CCN(C(=O)c3ccc(C)cc3)CC2)cc1 | inactive
46 | CCOC(=O)c1[nH]c(C)c(C(=O)NCc2ccc(Cl)cc2)c1C | inconclusive: 35.5 µM [activator, single point]
47 | CN(C)S(=O)(=O)c1cc(NC(=O)CSc2ncc(C(F)(F)F)cc2Cl)ccc1Cl | inconclusive: 14.1 µM [activator, single point]
48 | N/C(=N\OC(=O)CCCc1ccccc1)c1ccccc1Cl | inconclusive: 11.2 µM [activator, single point]

Some values from the results shown.
`CCOc1ccccc1C1C(C#N)=C(N)N(N(C)C)C2=C1C(=O)CCC2` (configuration not stated) – Potency: inactive
`CCn1c2ccccc2c2nnc(SCCCn3c(=O)[nH]c4ccccc43)nc21` – Potency: inactive

Next compounds follow:

Row | SMILES | Potency
49 | CCc1cccc(C)c1NC(=O)CSc1nnc(CCCOc2ccc(Cl)cc2Cl)n1C | inconclusive: 31.6 µM [activator, single point]
50 | COc1ccccc1Cn1c(=S)[nH]c2ccccc2c1=O | active: 10 µM
51 | O=C(Nc1cccc(-c2cccc(Cl)c2)c1)C1CCN(CC2CCOC2)CC1 (configuration not stated) | inconclusive: 11.2 µM [inhibitor, partial curve, poor fit]
52 | N[C@@H](C(=O)N[C@@H]1C(=O)N2C(C(=O)O)=C(Cl)CS[C@H]12)c1ccccc1 | inactive
53 | O=C(NC(=S)Nc1ccccc1O)c1cccnc1 | active: 11.2 µM
54 | Cn1c(-c2sc(=S)n(-c3ccccc3)c2N)nc2ccccc21 | active: 7.94 µM
55 | COc1ccc(S(=O)(=O)c2c(O)c3ccc(C(=O)Nc4ccc(F)cc4)cc3[nH]c2=O)cc1 | inactive
57 | O=C(Nc1cccc(S(=O)(=O)N2CCCCC2)c1)C1CC(=O)N(Cc2ccco2)C1 (configuration not stated) | inconclusive: 22.4 µM [activator, single point]
58 | Nc1ccc(Cl)cc1C(=O)OCC(=O)NC1CCS(=O)(=O)C1 (configuration not stated) | inconclusive: 0.0224 µM [inhibitor, full curve, poor fit]
59 | Cc1ccc(S(=O)(=O)c2ccc(-n3nc(C)cc3N)cc2)cc1 | inactive
60 | O=C(O)CC(NC(=O)Cc1ccccc1)c1cc([N+](=O)[O-])ccc1Cl (configuration not stated) | inactive
61 | NC(=O)CC(NC(=O)Cc1cccc2ccccc12)c1ccc(NCCOc2ccccc2)c([N+](=O)[O-])c1 (configuration not stated) | inconclusive: 22.4 µM [inhibitor, single point]
62 | COc1cccc(-n2c(SC3CCOC3=O)nc3ccccc3c2=O)c1 (configuration not stated) | inconclusive: 35.5 µM [activator, single point]
63 | Cn1c(CSCc2ccc(F)cc2)n[nH]c1=S | inconclusive: 11.2 µM [inhibitor, partial curve, poor fit]
64 | O=C(CCCN1C(=O)S/C(=C/C=C/c2ccccc2)C1=O)Nc1ccc(C(=O)O)cc1 | inactive
65 | Nc1nc2ccc(-c3nc4ccccc4o3)cc2s1 | inconclusive: 35.5 µM [inhibitor, single point]
66 | CCn1nc(NC(=O)C(C)(C)C)c2cc3cccc(C)c3nc21 | inactive
67 | Cc1ccc2c(c1)nnn2C1CCN(C(=O)C2CCCCC2)CC1 | inconclusive: 35.5 µM [activator, single point]
68 | CSc1cccc(NC(=O)c2cnn3ccccc23)c1 | inconclusive: 2.51 µM [activator, partial curve, poor fit]
69 | CN(C)CC(=O)Nc1nc(-c2ccccc2)cs1 | active: 11.2 µM
70 | CN(C)c1ccc(C(=O)Nc2nnc(-c3ccc(Cl)cc3)o2)cc1 | active: 0.501 µM
71 | N#C/C(=C\Nc1ccc2c(c1)OCCO2)c1nc2ccccc2[nH]1 | active: 3.16 µM
72 | O=C(CCCc1nc(-c2ccc(Cl)cc2)no1)Nc1cccnc1 | active: 15.8 µM

Retrieved one by one from above (3):
Row | SMILES | Potency
58 | Nc1ccc(Cl)cc1C(=O)OCC(=O)NC1CCS(=O)(=O)C1 (configuration not stated) | inconclusive: 0.0224 µM [inhibitor, full curve, poor fit]
72 | O=C(CCCc1nc(-c2ccc(Cl)cc2)no1)Nc1cccnc1 | active: 15.8 µM
63 | Cn1c(CSCc2ccc(F)cc2)n[nH]c1=S | inconclusive: 11.2 µM [inhibitor, partial curve, poor fit]
